One compound from US4849345A, “L-phenylalanine dehydrogenase and use thereof” (priority 1985, dated 1989) can be followed below.

Molecules are shown by their SMILES.

The test deals with T1, L-phenylalanine dehydrogenase produced by Bacillus sp. SCRC-R79a (Lysinibacillus sphaericus, UniProt P23307).
T1 sequence (P23307 1-381): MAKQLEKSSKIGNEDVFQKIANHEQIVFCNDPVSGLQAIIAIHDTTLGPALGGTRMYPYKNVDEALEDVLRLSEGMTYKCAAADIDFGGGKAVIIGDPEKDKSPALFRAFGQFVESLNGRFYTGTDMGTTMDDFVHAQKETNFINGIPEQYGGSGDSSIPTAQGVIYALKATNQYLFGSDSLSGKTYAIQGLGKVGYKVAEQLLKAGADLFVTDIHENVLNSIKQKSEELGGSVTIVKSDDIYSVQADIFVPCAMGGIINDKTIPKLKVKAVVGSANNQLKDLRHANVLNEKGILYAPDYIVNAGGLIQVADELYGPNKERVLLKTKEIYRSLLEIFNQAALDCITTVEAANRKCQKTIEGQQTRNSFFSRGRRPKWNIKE
Conditions: pH 9.0; phenylpyruvate to L-phenylalanine as 100%.

For `O=C(O)C(=O)Cc1ccc(O)cc1` [4-hydroxyphenypylruvate], the “relative rate of converting the α-keto acid to the L-amino acid” value is given as 176%.
